Assay results taken from US10723764B2, “Anti-microbial peptides and methods of use thereof” (priority 2011, dated 2020).

Tested on: human erythrocytes
Details: for cell selectivity index (ratio between HL50 and MIC): MIC of 3.1 μM used
Description: Peptide hemolysis was assayed using an established protocol (Malmsten et al. (2011) PLoS One 6:e16400). In brief, fresh blood, obtained from the UNMC Blood Bank, was washed three times with PBS buffer and made into a 5% solution. To 90 μL of this solution, 10 μL of a peptide solution was added and incubated at 37° C. for one hour. After centrifugation at 13,000 rpm, aliquots of the supernatant were transferred to a fresh 96 well microplate. The absorbance of the solutions was measured at 545 nm to detect the amount of hemoglobin released. The percent lysis was calculated by assuming 100% release when treated with 2% Triton X-100 and no lysis (0%) when treated with PBS buffer. HL50 was the peptide concentration that caused 50% lysis of human erythrocytes. The cell selectivity (CS) indexes were calculated as the ratio of HL50 to the MIC of the peptide against S. aureus USA300.
The hemolytic effects of the six peptides were also compared on human red blood cells (hRBC) using an established protocol (Malmsten et al. (2011) PLoS One 6:e16400). […] A high TI indicates good cell selectivity.
Peptide hemolysis was assayed using an established protocol (Menousek et al. (2012) Int. J. Antimicrob. Agents 39:402-406; Malmsten et al. (2011) PLoS One 6:e16400). Briefly, blood cells were washed three times with phosphate-buffered saline (PBS) and were diluted to a 5% solution. Following peptide treatment, incubation at 37° C. for 1 hour and centrifugation at 13,000 rpm, aliquots of the supernatant were transferred to a fresh 96-well microplate. To assess peptide cytotoxicity, the amount of hemoglobin released was measured at 545 nm. Percent lysis was calculated by assuming 100% release when human blood cells were treated with 2% Triton X-100 and 0% release when they were incubated with PBS buffer.

| SMILES | cell selectivity index (ratio between HL50 and MIC) | therapeutic index (hemolytic activity/MIC) (150/5, S. aureus USA300) |
| --- | --- | --- |
| CC(C)C[C@H](NC(=O)[C@H](CC(N)=O)NC(=O)[C@H](CCCNC(=N)N)NC(=O)[C@@H](CC(C)C)NC(=O)[C@H](Cc1ccc2ccccc2c1)NC(=O)[C@H](CC(=O)O)NC(=O)[C@H](CCCCN)NC(=O)[C@@H](CC(C)C)NC(=O)[C@H](CCCNC(=N)N)NC(=O)[C@H](CCC(N)=O)NC(=O)[C@@H](NC(=O)[C@@H](CC(C)C)NC(=O)[C@H](CCCNC(=N)N)NC(=O)[C@H](CCCCN)NC(=O)[C@H](Cc1ccc(C(F)(F)F)cc1)NC(=O)CN)C(C)C)C(=O)N[C@H](C(N)=O)C(C)C [17mF-Naph, GX1KRLVQRLKDX2LRNLV] (H-G[Phe(4-CF3)]KR[dL]VQR[dL]KD[2Nal][dL]RNLV-NH2) | 161 |  |
| CC(C)C[C@H](NC(=O)[C@H](CC(N)=O)NC(=O)[C@H](CCCNC(=N)N)NC(=O)[C@@H](CC(C)C)NC(=O)[C@H](Cc1ccc(C(F)(F)F)cc1)NC(=O)[C@H](CC(=O)O)NC(=O)[C@H](CCCCN)NC(=O)[C@@H](CC(C)C)NC(=O)[C@H](CCCNC(=N)N)NC(=O)[C@H](CCC(N)=O)NC(=O)[C@@H](NC(=O)[C@@H](CC(C)C)NC(=O)[C@H](CCCNC(=N)N)NC(=O)[C@H](CCCCN)NC(=O)[C@H](Cc1ccc2ccccc2c1)NC(=O)CN)C(C)C)C(=O)N[C@H](C(N)=O)C(C)C [17Naph-mF, GX1KRLVQRLKDX2LRNLV] (H-G[2Nal]KR[dL]VQR[dL]KD[Phe(4-CF3)][dL]RNLV-NH2) | 306 |  |
| CC(C)C[C@H](NC(=O)[C@H](CC(N)=O)NC(=O)[C@H](CCCNC(=N)N)NC(=O)[C@@H](CC(C)C)NC(=O)[C@H](Cc1ccc(-c2ccccc2)cc1)NC(=O)[C@H](CC(=O)O)NC(=O)[C@H](CCCCN)NC(=O)[C@@H](CC(C)C)NC(=O)[C@H](CCCNC(=N)N)NC(=O)[C@H](CCC(N)=O)NC(=O)[C@@H](NC(=O)[C@@H](CC(C)C)NC(=O)[C@H](CCCNC(=N)N)NC(=O)[C@H](CCCCN)NC(=O)[C@H](Cc1ccc(-c2ccccc2)cc1)NC(=O)CN)C(C)C)C(=O)N[C@H](C(N)=O)C(C)C [D128A, GX1KRLVQRLKDX2LRNLV-amide] (H-G[Bip]KR[dL]VQR[dL]KD[Bip][dL]RNLV-NH2) | 72 | 30 |

Where a SMILES comes first, the peptide text is derived from it. [ ]: non-standard residue; d: D form. Phe(4-CF3) = N[C@@H](Cc1ccc(C(F)(F)F)cc1)C(=O)O; Bip = N[C@@H](Cc1ccc(-c2ccccc2)cc1)C(=O)O; 2Nal = N[C@@H](Cc1ccc2ccccc2c1)C(=O)O
